{"source": "paper PMC9503660", "system": "cytochrome c", "assay": "thioflavin T displacement fluorescence (loss of ThT/G4 signal on cyt c addition)", "settings": "ThT, 1 mM K+, signal restored by trypsin digestion of cyt c; 50 mM Tris, 1 mM KCl, pH 7.5; temperature not stated; optimized 250 nM aptamer, 80 uM cyt c, 10 uM ThT, 45 min; commercial protein; folded or branched DNA", "note": "Construct, isoform or probe ends are uncertain for at least one entry."}
{"sequence": "CCGTGTCTGGGGCCGACCGGCGCATTGGGTACGTTGTTGCAAAAAGGGTTAGGGTTAGGGTTAGGGC [cyt c DNA aptamer with G-quadruplex (GGGTTA repeat) tail]", "values": [{"measurement": "binding result", "value": "binds"}]}
